{"source": "patent US12421232B2", "about": "“Kinase inhibitor compounds and compositions and methods of use” (ICAHN SCHOOL OF MEDICINE AT MOUNT SINAI, priority 2018, dated 2025)", "test_system": "human β-cells (dispersed human islet cells)", "test": "Human β-cell proliferation assay (Ki67 and insulin staining)", "format": "cell-based", "conditions": "concentration not given", "note": "For at least one compound, name, drawing or mass did not settle the structure."}
{"smiles": "COC(=O)CCOc1ccc2c(c1)[nH]c1c(C)nccc12", "note": "[Compound 10-2b, 3-(7-oxy-1-methyl-9-H-b-carbolin)propionic acid methyl ester]", "values": [{"measurement": "human β-cell proliferation (in words)", "value": "reduced jβ-cell proliferation compared to harmine"}]}
{"smiles": "Cc1nccc2c1[nH]c1cc(OCCC(N)=O)ccc12", "note": "[Compound 10-3b, 3-(7-oxy-1-methyl-9-H-b-carbolin)propionamide]", "values": [{"measurement": "human β-cell proliferation (in words)", "value": "reduced jβ-cell proliferation compared to harmine"}]}
